# The supplement of paper PMC8728848
# The other results are listed elsewhere or left out.
# What was measured:
# Assay in all cases: glycan array binding signal (z-score within array); higher = stronger binding
# Conditions in all cases: glycan notation: IUPAC condensed, linker removed
# [1] = molecular target: Neu5Ac(a2-8)Neu5Ac
# Summary of the method: (§1)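 Glycan array data were curated from 3228 arrays in the Consortium for Functional Glycomics database and kept only where the protein sequence was available. Glycan names were converted to IUPAC-condensed notation, and columns mapping to the same glycan were averaged. The binding signal is a within-array Z-score, averaged across arrays of the same protein sequence at different concentrations or buffers and across linkers. Negative Z-scores can be read as non-binding.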
# [2] = molecular target: Neu5Ac(a2-8)Neu5Ac(a2-3)Gal(b1-3)GalNAc(b1-4)[Neu5Ac(a2-3)]Gal(b1-4)Glc
# Summary of the method: as §1
# [3] = molecular target: Neu5Ac(a2-8)Neu5Ac(a2-3)Gal(b1-3)GalNAc(b1-4)[Neu5Ac(a2-8)Neu5Ac(a2-3)]Gal(b1-4)Glc
# Summary of the method: as §1
# [4] = molecular target: Neu5Ac(a2-8)Neu5Ac(a2-3)Gal(b1-4)Glc
# Summary of the method: as §1
# [5] = molecular target: Neu5Ac(a2-8)Neu5Ac(a2-3)Gal(b1-4)GlcNAc
# Summary of the method: as §1
# [6] = molecular target: Neu5Ac(a2-8)Neu5Ac(a2-3)[Gal(b1-3)GalNAc(b1-4)]Gal(b1-4)Glc
# Summary of the method: as §1
# [7] = molecular target: Neu5Ac(a2-8)Neu5Ac(a2-3)[GalNAc(b1-4)]Gal(b1-4)Glc
# Summary of the method: as §1
# [8] = molecular target: Neu5Ac(a2-8)Neu5Ac(a2-8)Neu5Ac
# Summary of the method: as §1
# [9] = molecular target: Neu5Ac(a2-8)Neu5Ac(a2-8)Neu5Ac(a2-3)Gal(b1-4)Glc
# Summary of the method: as §1
# [10] = molecular target: Neu5Ac(a2-8)Neu5Ac(a2-8)Neu5Ac(a2-3)[Gal(b1-3)GalNAc(b1-4)]Gal(b1-4)Glc
# Summary of the method: as §1
# [11] = molecular target: Neu5Ac(a2-8)Neu5Ac(a2-8)Neu5Ac(a2-3)[GalNAc(b1-4)]Gal(b1-4)Glc
# Summary of the method: as §1
# [12] = molecular target: Neu5Ac(a2-8)Neu5Ac(a2-8)Neu5Ac(a2-8)Neu5Ac(a2-3)[GalNAc(b1-4)]Gal(b1-4)Glc
# Summary of the method: as §1
# [13] = molecular target: Neu5Ac(a2-8)Neu5Gc(a2-3)Gal(b1-4)GlcNAc
# Summary of the method: as §1
# [14] = molecular target: Neu5Ac(b2-6)Gal(b1-4)GlcNAc
# Summary of the method: as §1
# [15] = molecular target: Neu5Ac(b2-6)GalNAc
# Summary of the method: as §1
# [16] = molecular target: Neu5Ac9Ac(a2-3)Gal(b1-3)GlcNAc
# Summary of the method: as §1
# [17] = molecular target: Neu5Ac9Ac(a2-3)Gal(b1-4)GlcNAc
# Summary of the method: as §1
# [18] = molecular target: Neu5Ac9Ac(a2-6)Gal(b1-4)GlcNAc
# Summary of the method: as §1
# [19] = molecular target: Neu5Gc(a2-3)Gal(b1-3)GlcNAc
# Summary of the method: as §1
# [20] = molecular target: Neu5Gc(a2-3)Gal(b1-3)[Fuc(a1-4)]GlcNAc
# Summary of the method: as §1
# [21] = molecular target: Neu5Gc(a2-3)Gal(b1-4)Glc
# Summary of the method: as §1
# [22] = molecular target: Neu5Gc(a2-3)Gal(b1-4)GlcNAc
# Summary of the method: as §1
# [23] = molecular target: Neu5Gc(a2-3)Gal(b1-4)GlcNAc(b1-3)Gal(b1-4)GlcNAc(b1-2)Man(a1-3)[Neu5Gc(a2-3)Gal(b1-4)GlcNAc(b1-3)Gal(b1-4)GlcNAc(b1-2)Man(a1-6)]Man(b1-4)GlcNAc(b1-4)GlcNAc
# Summary of the method: as §1
# [24] = molecular target: Neu5Gc(a2-3)Gal(b1-4)[Fuc(a1-3)]GlcNAc
# Summary of the method: as §1
# [25] = molecular target: Neu5Gc(a2-6)Gal(b1-4)GlcNAc
# Summary of the method: as §1
# [26] = molecular target: Neu5Gc(a2-6)GalNAc
# Summary of the method: as §1
# [27] = molecular target: Neu5Gc(a2-8)Neu5Ac(a2-3)Gal(b1-4)GlcNAc
# Summary of the method: as §1
# [28] = molecular target: Neu5Gc(a2-8)Neu5Gc(a2-3)Gal(b1-4)GlcNAc
# Summary of the method: as §1
# [29] = molecular target: Neu5Gc(a2-8)Neu5Gc(a2-3)Gal(b1-4)GlcNAc(b1-3)Gal(b1-4)GlcNAc
# Summary of the method: as §1
# [30] = molecular target: Neu5Gc(a2-8)Neu5Gc(a2-6)Gal(b1-4)GlcNAc
# Summary of the method: as §1
# [31] = molecular target: Neu5Gc(b2-6)Gal(b1-4)GlcNAc
# Summary of the method: as §1
binder,measurement,setting,value
GS7807G-bfa-506-18-506 (Bacteroides fragilis) (protein) ASCDKFDEINTDPDATTKVTSSLLATGLLLDITSSSASKSFIYDELLAKQMAWGESMEDYQYNVFGRSGFGGYTTLINAQKMVESVSDDNVNAYDGLAHFIKAYKIFYMSMEMGDLPYEEALQGELGLVRPKYNTQKEVMNFILSDLETAYELFSTAKDFDGDPILGGSISKWKKATTAFQLKVLMHLSKKESDADLKVKERFARIVASGSLMESNEDNLQMKYADKANTVYPFHNTNTKHAGYAMLSTMLIDKFKATGDIRMFYYAKPAKAKLNEGVTADSWDAYIGTDPSLPFEQIEKAYATEQYSGFNARYTDYPSGEPVVRLGYAEQNFILAEAAVRGWISGDASAYYKKAIRAHMEFIASNTPDEEVYHHGHPITEEAIAAFLETPAIQLSGEKEEDIEKILTQRYLASFMQHPYDVYYDYRRTGYPVLPINPATNRNTMNDRLPMRWMYPKSESDYNLEHQNEALERQFGGVDDVNKLMWILQ,glycan array binding signal (z-score),[1],-0.436
same,glycan array binding signal (z-score),[2],-0.336
same,glycan array binding signal (z-score),[3],0.197
same,glycan array binding signal (z-score),[4],-0.836
same,glycan array binding signal (z-score),[5],-0.834
same,glycan array binding signal (z-score),[6],0.482
same,glycan array binding signal (z-score),[7],1.7
same,glycan array binding signal (z-score),[8],-0.389
same,glycan array binding signal (z-score),[9],-0.357
same,glycan array binding signal (z-score),[10],-0.149
same,glycan array binding signal (z-score),[11],-0.032
same,glycan array binding signal (z-score),[12],2.07
same,glycan array binding signal (z-score),[13],-1.05
same,glycan array binding signal (z-score),[14],-0.477
same,glycan array binding signal (z-score),[15],-0.877
same,glycan array binding signal (z-score),[16],-0.645
same,glycan array binding signal (z-score),[17],-1.05
same,glycan array binding signal (z-score),[18],-0.283
same,glycan array binding signal (z-score),[19],-0.768
same,glycan array binding signal (z-score),[20],-0.982
same,glycan array binding signal (z-score),[21],-0.637
same,glycan array binding signal (z-score),[22],-1.08
same,glycan array binding signal (z-score),[23],-0.41
same,glycan array binding signal (z-score),[24],-0.465
same,glycan array binding signal (z-score),[25],-0.771
same,glycan array binding signal (z-score),[26],-0.111
same,glycan array binding signal (z-score),[27],-0.942
same,glycan array binding signal (z-score),[28],-0.712
same,glycan array binding signal (z-score),[29],-0.581
same,glycan array binding signal (z-score),[30],-0.393
same,glycan array binding signal (z-score),[31],2.12

# Fetched one by one from above:
binder,measurement,setting,value
GS7807G-bfa-506-18-506 (Bacteroides fragilis) (protein) ASCDKFDEINTDPDATTKVTSSLLATGLLLDITSSSASKSFIYDELLAKQMAWGESMEDYQYNVFGRSGFGGYTTLINAQKMVESVSDDNVNAYDGLAHFIKAYKIFYMSMEMGDLPYEEALQGELGLVRPKYNTQKEVMNFILSDLETAYELFSTAKDFDGDPILGGSISKWKKATTAFQLKVLMHLSKKESDADLKVKERFARIVASGSLMESNEDNLQMKYADKANTVYPFHNTNTKHAGYAMLSTMLIDKFKATGDIRMFYYAKPAKAKLNEGVTADSWDAYIGTDPSLPFEQIEKAYATEQYSGFNARYTDYPSGEPVVRLGYAEQNFILAEAAVRGWISGDASAYYKKAIRAHMEFIASNTPDEEVYHHGHPITEEAIAAFLETPAIQLSGEKEEDIEKILTQRYLASFMQHPYDVYYDYRRTGYPVLPINPATNRNTMNDRLPMRWMYPKSESDYNLEHQNEALERQFGGVDDVNKLMWILQ,glycan array binding signal (z-score),[8],-0.389
same,glycan array binding signal (z-score),[27],-0.942
same,glycan array binding signal (z-score),[31],2.12
